Results taken from PubChem BioAssay AID1671190 (National Center for Advancing Translational Sciences (NCATS), 2021).
Among all 580,000 compounds or so, about 6,100 (1.1%) were called active. Inconclusive means that the source gave no clear call. Such entries were picked first, then a sample of the others. Calls come from the whole dose curve; as a rule, active = well fitted inhibition curve with a large enough effect; inconclusive = small, poorly fitted or top-dose-only effect, or another doubt; inactive = no such curve, though single readings can be large or run the other way. A potency beside an inconclusive call is a rough fit, not a confirmed value.

By UniProt entry, the sequences of proteins in these tests, tags left out. Where a name states a change or a piece, a line headed by the entry shows the natural chain unless it says otherwise.
UniProt P18054: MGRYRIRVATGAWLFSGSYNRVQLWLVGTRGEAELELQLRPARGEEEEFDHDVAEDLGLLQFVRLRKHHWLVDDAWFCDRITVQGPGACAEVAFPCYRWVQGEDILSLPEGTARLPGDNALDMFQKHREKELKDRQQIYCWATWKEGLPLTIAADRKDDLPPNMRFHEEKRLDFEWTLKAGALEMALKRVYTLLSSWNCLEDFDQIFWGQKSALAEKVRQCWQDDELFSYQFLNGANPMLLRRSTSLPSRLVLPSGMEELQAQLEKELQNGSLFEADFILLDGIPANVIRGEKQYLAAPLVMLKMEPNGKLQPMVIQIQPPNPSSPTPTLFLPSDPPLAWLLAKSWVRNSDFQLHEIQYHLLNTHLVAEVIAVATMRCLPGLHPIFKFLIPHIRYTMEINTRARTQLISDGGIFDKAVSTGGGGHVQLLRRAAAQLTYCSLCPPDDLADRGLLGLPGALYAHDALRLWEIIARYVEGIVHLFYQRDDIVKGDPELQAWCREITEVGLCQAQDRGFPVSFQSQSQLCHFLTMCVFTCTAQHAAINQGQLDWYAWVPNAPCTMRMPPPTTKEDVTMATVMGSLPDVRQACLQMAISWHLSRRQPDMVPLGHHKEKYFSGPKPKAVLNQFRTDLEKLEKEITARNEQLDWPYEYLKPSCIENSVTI

What follows are compounds tested against Polyunsaturated fatty acid lipoxygenase ALOX12 (Homo sapiens) (UniProt P18054) (assay: Primary qHTS assay for inhibitors of human arachidonate 12S-lipoxygenase (ALOX12): Round 2). Conditions: purified 12hLO, xylenol orange hydroperoxide absorbance; activity change, negative = inhibition: at 108 µM (top of the series) unless noted.
Summary of the method: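 Purified human 12hLO at 150 nM in 25 mM Hepes, 0.01% Triton X-100, pH 7.0, preincubated 15 min at room temperature with compound. Reaction started with 40 uM arachidonic acid, 30 min at room temperature. Hydroperoxide measured by Fe-xylenol orange, 573/405 nm absorbance ratio.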
% is set by controls: 0 for no effect and ±100 for the full control effect; potency is the fitted concentration of half-maximal effect.

Row | Structure (SMILES) | Potency | activity change, negative = inhibition
1 | CC1=CC(C)=Nc2ccc(C)cc2N1 | inconclusive: 39.8 µM [inhibitor, partial curve, poor fit] | –
2 | Clc1cccc(-c2nnc(-c3ccccc3)o2)c1 | inconclusive: 25.1 µM [inhibitor, partial curve, poor fit] | –
3 | COc1ccccc1-c1cccc([C@@H]2C[C@H]3[C@H](CON3C)CN2C(=O)C(C)(C)C)c1 | inconclusive: 112 µM [inhibitor, single point] | –
4 | c1ccc(C2(Cn3ccc4ccccc43)OCCO2)cc1 | inconclusive: 79.4 µM [inhibitor, single point] | –
5 | COc1c(C)cc(C(=O)C2CCCN(Cc3c(C)n(C)n(-c4ccccc4)c3=O)C2)cc1C (stereo not drawn) | inactive | –
6 | COc1ccc2[nH]cc(CCNc3nc(-c4ccc(C(=O)N(C)C)cc4)nc4ccccc34)c2c1 | inconclusive: 50.1 µM [inhibitor, partial curve, poor fit] | –
7 | CC(=O)Oc1ccc(-c2nc(-c3cccc(Br)c3)no2)cc1 | inactive | –
8 | COc1cc(C2C=C(Nc3ccccc3)C(=O)N2c2ccccc2)ccc1O (stereo not drawn) | inactive | –
9 | COc1ccc(C(=O)OCC(=O)N2CC(=O)Nc3ccccc32)cc1Br | inconclusive: 44.7 µM [inhibitor, single point] | –
10 | O=C1C(=O)N(CCN2CCOCC2)C(c2ccccc2)/C1=C(\O)c1ccc2c(c1)OCCO2 (stereo not drawn) | inconclusive: 7.94 µM [inhibitor, full curve, poor fit] | –
11 | CNC(=O)N(c1ccccc1)c1ccccc1 | inactive | –
12 | CCn1cnnc1-c1cccc(NS(=O)(=O)c2cccc(F)c2)c1 | inconclusive: 44.7 µM [inhibitor, single point] | –
13 | CCCC12CN(C(=O)c3ccccc3)CC(CCC)(CN(C(=O)c3ccccc3)C1)C2=O | inconclusive: 35.5 µM [inhibitor, single point] | –
14 | COc1cccc(NC(=O)Nc2cccc(-c3ccc(N4CCOCC4)nn3)c2)c1 | inconclusive: 7.94 µM [inhibitor, partial curve, poor fit] | –
15 | CN1CCN(C(=O)CCN2C(=O)c3ccccc3S2(=O)=O)CC1 | inconclusive: 11.2 µM [inhibitor, partial curve, poor fit] | –
16 | CC(=O)OCC1=C(C(=O)O)N2C(=O)C(NC(=O)c3ccc(COc4c(C)cccc4Cl)o3)C2SC1 (stereo not drawn) | inconclusive: 50.1 µM [inhibitor, partial curve, poor fit] | –
17 | Cn1c(CNC(=O)OC(C)(C)C)n[nH]c1=S | inconclusive: 50.1 µM [inhibitor, partial curve, poor fit] | –
18 | COC(=O)c1ccc[n+](CC(=O)Nc2ccc(OC(F)F)cc2)c1 | inconclusive: 50.1 µM [inhibitor, partial curve, poor fit] | –
19 | Cn1nc(C2CCCN2)c2c(C(=O)NCc3ccc(F)cc3)cc(C3CC3)nc21 (stereo not drawn) | – | inactive: -1.59% [at 6.33 µM]
20 | Cc1ccc(CN2CCC(CNc3ncnc4onc(-c5ccc(F)cc5)c34)CC2)cc1 | inconclusive: 126 µM [inhibitor, partial curve, poor fit] | –
21 | CC(c1ccncn1)N(C)Cc1nc(-c2ccc(C(F)(F)F)cc2)no1 (stereo not drawn) | inactive | –
22 | COc1ccc(NC(=O)CSc2nc(C)cs2)c([N+](=O)[O-])c1 | inconclusive: 35.5 µM [inhibitor, partial curve, poor fit] | –

Row | Structure (SMILES) | Potency | activity change, negative = inhibition
23 | CNC(=O)[C@@H]1CN(C(=O)CCc2ccccc2OC)C[C@H]1c1n[nH]c(C)n1 | inactive | –
24 | NNc1cccc(S(=O)(=O)c2cccc(NN)c2)c1 | active: 11.2 µM | –
25 | CCOC(=O)c1cnc2ccc(C)cc2c1NCCO | inactive | –
26 | Cc1ccc(-c2ccc(/C=N/N=C3/NC(=O)C(CC(=O)O)S3)o2)c([N+](=O)[O-])c1 (stereo not drawn) | inactive | –
27 | CC(C)OC(=O)c1c(N)sc2c1CCCC2 | inconclusive: 3.16 µM [inhibitor, full curve, poor fit] | –
28 | COc1ccc(CN2C(=O)c3oc4ccccc4c(=O)c3C2c2ccc(O)cc2)cc1 (stereo not drawn) | inconclusive: 126 µM [inhibitor, single point] | –
29 | CC(=O)Nc1ccc(SC2CCCCCC2=O)cc1 (stereo not drawn) | inconclusive: 5.01 µM [inhibitor, full curve, poor fit] | –
30 | Cc1ccc(S(=O)(=O)NCc2ccccc2)cc1C(=O)N(C)Cc1ccc(F)cc1 | inactive | –
31 | S=C(NCC1CCCO1)N1CCN(Cc2ccccc2)CC1 (stereo not drawn) | inconclusive: 0.631 µM [inhibitor, full curve, poor fit] | –
32 | CC1CCc2nc3ccc4ccccc4c3c(-c3ccccc3O)c2C1 (stereo not drawn) | inconclusive: 5.62 µM [inhibitor, full curve, poor fit] | –
33 | COc1ccc(-c2n[nH]c(=S)n2C2CCCCC2)cc1 | active: 44.7 µM | –
34 | Cc1ccc(Cl)cc1N1CCN(C(=O)CNC(=O)NCc2ccc(F)cc2)CC1 | inactive | –
35 | CC1(Cc2ccccc2Cl)C(=O)Nc2ccc(OC(F)(F)F)cc21 (stereo not drawn) | inconclusive: 70.8 µM [inhibitor, partial curve, poor fit] | –
36 | CCSc1ncc(Cl)c(C(=O)Nc2ccc(S(=O)(=O)Nc3onc(C)c3C)cc2)n1 | inconclusive: 0.794 µM [inhibitor, partial curve, poor fit] | –
37 | COc1cc(CNCCc2c[nH]c3ccccc23)ccc1OCc1ccc(F)cc1 | inconclusive: 39.8 µM [inhibitor, partial curve, poor fit] | –
38 | Cc1ccc(C(C)(C)C)cc1S(=O)(=O)N1CCC(C(=O)N2CCN(c3ccc(O)cc3)CC2)CC1 | inconclusive: 3.98 µM [inhibitor, full curve, poor fit] | –
39 | CCCCn1c(=NC(=O)c2ccco2)c(C(=O)OCC)cc2c(=O)n3ccccc3nc21 | – | inconclusive: -30.2% [inhibitor]
40 | COc1ccc(S(=O)(=O)N(C)CC(=O)NCCC2=CCCCC2)cc1 | inconclusive: 44.7 µM [inhibitor, single point] | –
41 | N#Cc1cccnc1-c1cccc(C(=O)O)c1 | active: 56.2 µM | –
42 | Cc1c(C(=O)c2no[n+]([O-])c2C(=O)c2cnn(C)c2C)cnn1C | inactive | –
43 | CSc1ccc(CNCCCN(C)C)cc1 | inactive | –

An excerpt of these results, with each value named:
O=C1C(=O)N(CCN2CCOCC2)C(c2ccccc2)/C1=C(\O)c1ccc2c(c1)OCCO2 (stereo not drawn)
  Potency: inconclusive: 7.94 µM [inhibitor, full curve, poor fit]
CC(=O)OCC1=C(C(=O)O)N2C(=O)C(NC(=O)c3ccc(COc4c(C)cccc4Cl)o3)C2SC1 (stereo not drawn)
  Potency: inconclusive: 50.1 µM [inhibitor, partial curve, poor fit]
